Laboratory results from PubChem BioAssay AID2551 (National Center for Advancing Translational Sciences (NCATS), 2010).
Hit rate of the full screen: of about 310,000 compounds, about 17,000 (5.5%) were called active. Inconclusive results, whose numbers are uncertain, are shown with a selection of clear calls. Calls come from the whole dose curve; as a rule, active = well fitted inhibition curve with a large enough effect; inconclusive = small, poorly fitted or top-dose-only effect, or effect the other way; inactive = no such curve, though single readings can be large or run the other way. Potencies beside an inconclusive call are fits to weak or partial responses and may not hold up.

The chains behind the UniProt entries cited, without tags or fusion partners. Where a name states a change or a piece, a line headed by the entry shows the natural chain unless it says otherwise.
UniProt P51450: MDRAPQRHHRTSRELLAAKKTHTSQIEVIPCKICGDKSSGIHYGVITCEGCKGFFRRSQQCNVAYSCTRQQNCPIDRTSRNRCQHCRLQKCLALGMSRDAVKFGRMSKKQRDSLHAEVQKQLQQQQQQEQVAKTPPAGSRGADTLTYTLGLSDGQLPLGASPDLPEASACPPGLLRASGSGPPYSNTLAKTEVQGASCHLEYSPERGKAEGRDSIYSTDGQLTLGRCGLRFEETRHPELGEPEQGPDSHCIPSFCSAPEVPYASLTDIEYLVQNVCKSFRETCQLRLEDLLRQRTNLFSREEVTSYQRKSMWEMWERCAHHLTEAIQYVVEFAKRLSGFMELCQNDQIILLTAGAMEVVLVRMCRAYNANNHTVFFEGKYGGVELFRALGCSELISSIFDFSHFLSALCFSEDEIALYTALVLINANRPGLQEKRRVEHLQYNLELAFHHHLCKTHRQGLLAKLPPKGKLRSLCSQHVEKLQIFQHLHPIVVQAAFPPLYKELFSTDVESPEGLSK

Each compound was assayed against Nuclear receptor ROR-gamma (Mus musculus) (UniProt P51450) (assay: qHTS for inhibitors of ROR gamma transcriptional activity). Settings: Drosophila S2 Gal4-RORgamma UAS-luciferase reporter, 20 h; activity change, negative = inhibition: at 53.6 µM (top of the series).
Summary of the method: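 A Gal4/UAS one-hybrid system in insect cells: metallothionein-promoter Gal4–ROR gamma fusion plus Photinus luciferase reporter. Copper sulfate 700 uM final, 20 hr ambient incubation, luminescent detection after 10 min with reagent.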
% is set by controls: 0 for no effect and ±100 for the full control effect; potency is the fitted concentration of half-maximal effect.
Note: nearly all actives have a fitted effect of over 60% in size.

Row | SMILES | Potency | activity change, negative = inhibition
1 | Cc1cccc(Cn2cc3c(=O)n(Cc4cccc(F)c4)nc-3c3ccccc32)c1 | inactive | 
2 | CCCCCCCCCCCCCCCCOCCOCCOCCOCCOCCOCCOCCOCCOCCOCCOCCOCCOCCOCCOCCOCCOCCOCCOCCOCCO | inconclusive: 35.5 µM [inhibitor, single point] | 
3 | Cc1ccc(/C=C/C(=O)Nc2ccc(S(N)(=O)=O)cc2)o1 | inactive | 
4 | COc1ccc(Cc2[nH]n3c(=O)cc(C(C)C)nc3c2-c2ccccc2)cc1 | active: 3.55 µM | 
5 | Cc1csc2ncnc(NNC(=O)c3ccc(Cl)cc3)c12 | active: 1.78 µM | 
6 | COc1cc(/C=C/C(=O)OCC(=O)c2c[nH]c3ccccc23)ccc1OC(F)F | inconclusive: 0.0355 µM [activator, full curve, poor fit] | 
7 | CCOC(=O)Cc1csc(NC(=O)c2ccc(S(=O)(=O)N3CCCC3)cc2)n1 | inconclusive: 11.2 µM [inhibitor, single point] | 
8 | COC(=O)c1ccc(=O)c2nc3/c(=C/O)c(O)cc(=O)c3[nH]c12 | inactive | 
9 | CCCCCC(=O)NC(=S)Nc1ccc(Br)cc1C | active: 10 µM | 
10 | O=C(NCc1ccccc1)C1CCN(S(=O)(=O)c2cccc3cccnc23)CC1 | inactive | 
11 | CCc1nc(SCC(=O)O)c(C#N)cc1C | inactive | 
12 | Cc1cc(C(=O)CCl)c(C)n1CC1COc2ccccc2O1 (stereo unspecified) | active: 10 µM | 
13 | Cc1ccc(-c2noc(-c3ccccc3F)n2)cc1 | inactive | 
14 | COc1ccc(C2C(C#N)=C(N)Oc3cc(O)ccc32)cc1OC (stereo unspecified) | inactive | 
15 | Cc1onc(-c2c(F)cccc2Cl)c1C(=O)NC1=NCCS1 | active: 14.1 µM | 
16 | COc1cccc(CNC(=O)CCS(=O)(=O)c2ccc3c(c2)NC(=O)C(C)S3)c1 (stereo unspecified) | inactive | 
17 | O=C(c1cc2ccccc2o1)N1CCN(c2cccc(C(F)(F)F)c2)CC1 | inactive | 
18 | CCc1ccc(-c2nc(-c3ccncc3)no2)cc1 | inconclusive: 12.6 µM [inhibitor, single point] | 
19 | O=C(CNC(=O)c1ccccc1F)N/N=C/c1cccs1 | inactive | 
20 | CC(C)CN(CC(C)C)c1nnc(NC(=O)Cn2c(=O)oc3ccccc32)s1 | inconclusive: 0.794 µM [inhibitor, single point] | 
21 | Cc1ccc(C)c(OCC(O)CN2CCCCC2C)c1 (stereo unspecified) | inconclusive: 35.5 µM [inhibitor, single point] | 
22 | CCNC(=S)NNC(=O)c1csc(C)c1 | active: 12.6 µM | 
23 | CC(Oc1ccc(F)cc1F)C(=O)NNC(=S)NCC1CCCO1 (stereo unspecified) | active: 11.2 µM | 
24 | CN1C(=S)SC(N(O)C(=O)Nc2ccc(Cl)c(Cl)c2)C1(C)C (stereo unspecified) | inconclusive: 20 µM [activator, single point] | 
25 | Cn1cc(-c2nc3cnc(N4CCNCC4)nc3n(Cc3ccc(F)cc3)c2=O)c2ccccc21 | inconclusive: 20 µM [inhibitor, single point] | 
26 | COCC(C)n1c(C)cc(C(=O)CN2C(=O)NC3(CCCCC3C)C2=O)c1C (stereo unspecified) | inconclusive: 7.94 µM [activator, partial curve] | 

Row | SMILES | Potency | activity change, negative = inhibition
27 | CN(C(=O)c1cccc(COc2ccc(Cl)cc2Cl)c1)c1ccccc1 | inconclusive: 0.794 µM [activator, partial curve] | 
28 | CCOC(=O)N1CCN(C(=O)C2CCN(S(=O)(=O)c3cc(Cl)ccc3Cl)CC2)CC1 | inconclusive: 12.6 µM [activator, partial curve] | 
29 | CS(=O)(=O)N(CC(=O)NC1CC2CCC1C2)c1cccc(C(F)(F)F)c1 (stereo unspecified) | inconclusive: 1.78 µM [inhibitor, partial curve] | 
30 | O=C(/C=C/c1ccc2c(c1)OCO2)NCCSCc1c(Cl)cccc1Cl | inconclusive: 6.31 µM [activator, partial curve] | 
31 | Cc1cc(Cl)ccc1OC(C)C(=O)NCCc1ccc2c(c1)OCCO2 (stereo unspecified) | inconclusive: 35.5 µM [inhibitor, single point] | 
32 | O=C(CNC(=O)c1ccncc1)N/N=C/c1cc(Br)ccc1O |  | inactive: -6.55% [at 10 µM]
33 | CCn1c(COc2ccc(C)cc2)nc2ccccc21 | active: 8.91 µM | 
34 | CCCCCC1=CCC/C1=N\NC(=O)c1ccc2c(c1)OCO2 | inconclusive: 25.1 µM [inhibitor, single point] | 
35 | CCCCN(C)C(=O)C1CCC(CNS(=O)(=O)c2ccc3c(c2)CC(C)N3C(=O)C2CC2)CC1 (stereo unspecified) | inconclusive: 14.1 µM [activator, partial curve] | 
36 | O=C(N/N=C/c1cc([N+](=O)[O-])ccc1O)/C(=C\c1cccs1)NC(=O)c1ccccc1 | active: 11.2 µM | 
37 | Cc1nc2ccccc2c2oc(C(=O)N3CC(C)CC(C)C3)cc12 (stereo unspecified) | inactive | 
38 | COC(=O)[C@@]1(Cc2ccccc2)[C@@H]2C(=CC(=O)[C@H]2CC(=O)C(=O)N(C)C)CN1C(=O)c1ccccc1 | inconclusive: 35.5 µM [inhibitor, single point] | 
39 | O=S(=O)(N/N=C1/CCCc2ccccc21)c1ccc(Br)cc1 | inconclusive: 17.8 µM [activator, single point] | 
40 | N#CCNC1CC(=O)N(c2ccc(F)cc2)C1=O (stereo unspecified) | inactive | 
41 | Cc1cc(C)c2c(=O)n(CC(=O)N3CCC(N4CCCCC4)CC3)sc2n1 | inconclusive: 17.8 µM [inhibitor, single point] | 
42 | COc1ccc(/C=N/N2C(=N)SCC2=O)cc1 | inconclusive: 8.91 µM [inhibitor, partial curve, poor fit] | 
43 | Cc1ccc(-n2c(C)cc(C(=O)CSc3n[nH]c(N)n3)c2C)cc1 | inconclusive: 35.5 µM [activator, single point] | 
44 | CCCc1[nH]nc2c1C(c1ccc(OC)c(Cn3nc(C)c(Br)c3C)c1)C(C#N)=C(N)O2 (stereo unspecified) | inconclusive: 17.8 µM [activator, single point] | 
45 | Cc1cccc(Nc2cc(C)c3c(O)cccc3n2)c1C | inactive | 
46 | Cc1cc2nc(-c3ccc[nH]c3=O)[nH]c2cc1C | active: 7.94 µM | 
47 | O=c1c2ccccc2nc(-c2ccccc2Cl)n1O | active: 10 µM | 
48 | CCC(=O)N1CCN(c2ccccc2NC(=O)COc2cc(C)ccc2C(C)C)CC1 | inactive | 
49 | CCCCCn1c(=O)[nH]c2cc(C(=O)NCc3ccco3)ccc2c1=O | inconclusive: 12.6 µM [activator, partial curve, poor fit] | 
50 | Cc1cc(C(=O)NC2CCCc3c2cnn3-c2cccc(C)c2C)n(C)n1 (stereo unspecified) | inconclusive: 1.26 µM [inhibitor, full curve, poor fit] | 
51 | COC1CCCN(C(=O)c2ccc3oc(Cc4ccc(Cl)cc4)nc3c2)C1 (stereo unspecified) | inactive | 
52 | Cc1ccc(-c2cc(-c3ccc4c(c3)OCO4)c(C#N)c(N)n2)o1 | inconclusive: 35.5 µM [inhibitor, single point] | 

Row | SMILES | Potency | activity change, negative = inhibition
53 | Cc1sc2ncnc(Sc3ccccc3C(=O)Nc3ccccc3Cl)c2c1C | inconclusive: 3.98 µM [activator, single point] | 
54 | Cc1cc(C(=O)COC(=O)CCc2nc3ccccc3s2)c(C)n1C | inconclusive: 7.08 µM [inhibitor, full curve, poor fit] | 
55 | COC(Cc1nnc(SC)n1-c1ccccc1)OC | inactive | 
56 | CC(=O)Nc1ccc(NC(=O)CSc2ccc3nnc(-c4ccccn4)n3n2)cc1 | inactive | 
57 | CC1=CC2=NC(=O)/C(=C\c3cccn3CCOc3cc(C)ccc3C)C(=N)N2O1 | inconclusive: 15.8 µM [inhibitor, single point] | 
58 | O=C(Nn1cnnc1)c1cc(Cl)ccc1Cl | inactive | 
59 | O=C(CN1/C(=C(/O)c2ccccc2)C(=O)c2ccccc2S1(=O)=O)c1ccccc1 | inconclusive: 17.8 µM [inhibitor, single point] | 
60 | CC(=O)c1c(C)oc2c1C(=O)c1ccccc1C2=O | active: 3.98 µM | 
61 | O=C(O)CCc1ccc(-c2ccccc2)n1NC(=O)c1cccs1 | inactive | 
62 | NC(=S)N/N=C/c1ccc(-c2ccccc2)o1 | active: 1.41 µM | 
63 | O=C(NC(=S)Nc1ccc([N+](=O)[O-])cc1O)C1CCCCC1 | inconclusive: 0.0178 µM [inhibitor, full curve, poor fit] | 
64 | CCOC(=O)C1CCCN(S(=O)(=O)c2ccc(-n3cnnn3)c(C)c2)C1 (stereo unspecified) | inconclusive: 17.8 µM [activator, partial curve] | 
65 | C=C(C)/C=N/NC(=S)Nc1ccc(S(=O)(=O)N2CCOCC2)cc1 | inconclusive: 7.08 µM [inhibitor, partial curve] | 
66 | O=C(N/N=C/c1ccc2ncccc2c1)c1ccco1 | active: 7.94 µM | 
67 | Cc1ccccc1NC(=S)Nc1ccccc1 | inconclusive: 35.5 µM [inhibitor, single point] | 
68 | Cc1[nH]c2ccccc2c1/C=N/Nc1nc(Nc2ccc(F)cc2)nc(N2CCOCC2)n1 | active: 2.51 µM | 
69 | O=C(Cc1ccc(S(=O)(=O)N2CCCC2)s1)Nc1nc2c(s1)CCCC2 | inactive | 
70 | Cc1ccc(C(=O)NC2=NCCS2)cc1Cl | inconclusive: 17.8 µM [inhibitor, single point] | 
71 | Brc1ccccc1Cn1cnc2ccccc21 | inconclusive: 14.1 µM [inhibitor, single point] | 
72 | CC[C@@H](C)[C@H](CN[C@H](CNC)C(C)C)NC[C@@H](C)c1ccc(CC(C)C)cc1 | active: 10 µM | 
73 | CC(C)COc1ccc(C/C(N)=N/n2cnnc2)cc1 | inconclusive: 3.16 µM [activator, partial curve] | 
74 | CCOc1ccc2nc(SCC(=O)c3ccc(O)cc3O)sc2c1 | inconclusive: 3.98 µM [inhibitor, partial curve, poor fit] | 
75 | COC(=O)C1=C(CS(=O)(=O)c2ccc(C)cc2)NC(=O)NC1c1ccc(OC)c(OC)c1 (stereo unspecified) | inactive | 
76 | CC(C)CCN1CC(O)=C(c2nc3ccccc3[nH]2)C1=N | inconclusive: 35.5 µM [inhibitor, single point] | 
